These results are taken from patent publication US7115380B2, “Applications of peptides derived from the cytoplasmic domain of amyloid precursor protein (APP)” (Centre National de la Recherche Scientifique, priority 1999, dated 2006).

This data set deals with neurons (primary culture). The data set is described as follows: Internalization verified by confocal microscopy after immunolabeling or biotin detection. In kind it is cell-based, mouse or rat. The conditions noted are these: compared among the three peptides.

For “Pmyc: SEQ ID NO: 5 + peptide corresponding to the MYC sequence [EQKLISEED]; no relation to APP (KQIKIWFQNRRMKWKKEQKLISEED; listed as Homo sapiens)”, the “internalization and intracellular stability” value was “identical”.
